The experiment deals with BRD3 (pJTI-R4-DEST-CMV-N-EmGFP BRD3 construct) (UniProt Q15059). The experiment can be described thus: co-IP; HEK293 cells co-transfected with FLAG-Nrf2 and BRD3, BRD4 or empty vector for 48 hours; 1500 ug of lysate protein immunoprecipitated with 5 ug anti-BRD3 or anti-BRD4 antibody (or control IgG) overnight at 4°C, captured on Protein G-Sepharose; immunoblot with anti-BRD3, anti-BRD4 and …. On the technique in general: In western blotting, separated proteins are transferred to a membrane and probed.

Amino acid sequences for entries named in this document (tags omitted).
UniProt Q15059: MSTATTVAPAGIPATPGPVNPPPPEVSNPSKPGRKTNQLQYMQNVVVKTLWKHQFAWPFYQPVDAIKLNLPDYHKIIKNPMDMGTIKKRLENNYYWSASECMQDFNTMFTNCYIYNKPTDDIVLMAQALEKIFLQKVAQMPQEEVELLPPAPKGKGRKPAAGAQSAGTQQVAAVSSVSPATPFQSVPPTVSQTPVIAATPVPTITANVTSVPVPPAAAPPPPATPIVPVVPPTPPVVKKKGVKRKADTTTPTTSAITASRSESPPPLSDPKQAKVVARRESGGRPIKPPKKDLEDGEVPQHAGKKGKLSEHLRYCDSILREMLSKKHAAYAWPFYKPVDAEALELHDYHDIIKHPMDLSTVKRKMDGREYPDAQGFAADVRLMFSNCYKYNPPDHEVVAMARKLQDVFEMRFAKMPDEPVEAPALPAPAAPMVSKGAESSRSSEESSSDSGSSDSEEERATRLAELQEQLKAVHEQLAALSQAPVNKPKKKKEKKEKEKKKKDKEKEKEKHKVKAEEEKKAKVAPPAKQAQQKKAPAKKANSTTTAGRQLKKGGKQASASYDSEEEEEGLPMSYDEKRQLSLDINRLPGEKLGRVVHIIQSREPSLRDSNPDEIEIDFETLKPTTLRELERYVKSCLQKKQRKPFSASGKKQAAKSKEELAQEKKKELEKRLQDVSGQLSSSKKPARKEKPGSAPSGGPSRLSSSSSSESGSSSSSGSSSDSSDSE

The values that follow come from article PMC5346709.

Results are given in words; binding and its absence hold for the method and conditions named. In cells and extracts the contact can be indirect. Some results given as binding are weak or reduced against the parent protein; the word gives no strength. Tags and fused reporters may be left off the sequences shown.

B1: Nrf2 (pcDNA3.1-FLAG Nrf2 construct) (protein, UniProt Q16236 1-605)
chain: MMDLELPPPGLPSQQDMDLIDILWRQDIDLGVSREVFDFSQRRKEYELEKQKKLEKERQEQLQKEQEKAFFAQLQLDEETGEFLPIQPAQHIQSETSGSANYSQVAHIPKSDALYFDDCMQLLAQTFPFVDDNEVSSATFQSLVPDIPGHIESPVFIATNQAQSPETSVAQVAPVDLDGMQQDIEQVWEELLSIPELQCLNIENDKLVETTMVPSPEAKLTEVDNYHFYSSIPSMEKEVGNCSPHFLNAFEDSFSSILSTEDPNQLTVNSLNSDATVNTDFGDEFYSAFIAEPSISNSMPSPATLSHSLSELLNGPIDVSDLSLCKAFNQNHPESTAEFNDSDSGISLNTSPSVASPEHSVESSSYGDTLLGLSDSEVEELDSAPGSVKQNGPKTPVHSSGDMVQPLSPSQGQSTHVHDAQCENTPEKELPVSPGHRKTPFTKDKHSSRLEAHLTRDELRAKALHIPFPVEKIINLPVVDFNEMMSKEQFNEAQLALIRDIRRRGKNKVAAQNCRKRKLENIVELEQDLDHLKDEKEKLLKEKGENDKSLHLLKKQLSTLYLEVFSMLRDEDGKPYSPSEYSLQQTRDGNVFLVPKSKKPDVKKN
On to B1, for which the binding result is “binds”.
